# The list is a part of this screen's results and no random one: it is rich in T/C values a quarter to a half above the control, in often repeated tests (any T/C) and in doses without a T/C. Further doses and runs are listed elsewhere. T/C is the treated group as % of the vehicle group. Some doses have a count of surviving animals in place of a T/C: the source holds a T/C of zero for them, seemingly a mark for toxic or unscored doses. Some survivor counts are full or nearly so, which does not show that the dose was tolerated: survival well below the control is almost never listed, so the zero probably covers shortened survival too. Counts of survivors are from the toxicity check (mostly the fifth day) where no day follows; animals may have died later. Schedule codes are those of the source, read here as Q, the interval in days (D) or hours (H), X, the number of doses. Some structures stand for samples that the source files as different forms (salt, stereo form or complex); doses refer to the form tested. Some entries hold several experiments; their values stand side by side, smallest first. Signs of the kind (2×) count equal records among those shown. For survival time, the PubChem record calls one and a half times the control and up active, and a quarter to a half above the control has no call in these data; cut-offs in other NCI protocols can differ. Some T/C values carry the count of animals alive at the toxicity check (mostly the fifth day); without a count, all were alive then.
# Tested on: P388 leukemia ip, CD2F1 mice, survival T/C
# Experiment: NCI In Vivo Anticancer Drug Screen. Data for tumor model P388 Leukemia (intraperitoneal) in CD2F1 (CDF1) mice
# Conditions: T/C endpoint: median survival time, higher T/C = longer survival
smiles,measurement,setting,value
COc1cc(NS(C)(=O)=O)ccc1Nc1c2ccccc2nc2ccccc12,T/C,"dose: 12.0 mg/kg/injection, schedule: Q04DX003 (ip), vehicle: saline with Tween-80, evaluated on day 60","157, 216, 250 % of control"
same,T/C,"dose: 12.0 mg/kg/injection, schedule: Q04DX003 (ip), vehicle: water",125 % of control
same,T/C,"dose: 13.0 mg/kg/injection, schedule: Q04DX003 (ip), vehicle: saline with Tween-80, evaluated on day 44",173 % of control
same,T/C,"dose: 13.0 mg/kg/injection, schedule: Q04DX003 (ip), vehicle: saline with Tween-80, evaluated on day 45","146, 152, 161, 166, 180, 205 % of control"
same,T/C,"dose: 13.0 mg/kg/injection, schedule: Q04DX003 (ip), vehicle: saline with Tween-80, evaluated on day 47","167, 188, 189, 196 % of control"
same,T/C,"dose: 13.0 mg/kg/injection, schedule: Q04DX003 (ip), vehicle: saline with Tween-80, evaluated on day 48",157 % of control
same,T/C,"dose: 13.0 mg/kg/injection, schedule: Q04DX003 (ip), vehicle: saline with Tween-80, evaluated on day 60","200, 216, 220 % of control"
same,T/C,"dose: 15.0 mg/kg/injection, schedule: Q04DX003 (ip), vehicle: saline with Tween-80, evaluated on day 5",188 and 262 % of control
same,T/C,"dose: 15.0 mg/kg/injection, schedule: Q04DX003 (ip), vehicle: saline with Tween-80, evaluated on day 7",157 % of control
same,T/C,"dose: 15.0 mg/kg/injection, schedule: Q04DX003 (ip), vehicle: saline with Tween-80, evaluated on day 60","154, 223, 250 % of control"
same,survivor count,"dose: 16.0 mg/kg/injection, schedule: Q01DX005 (ip), vehicle: other",5 of 5
same,survivor count,"dose: 16.0 mg/kg/injection, schedule: Q01DX005 (oral), vehicle: other",5 of 6
same,T/C,"dose: 16.0 mg/kg/injection, schedule: Q04DX003 (oral), vehicle: other",130 and 132 % of control
same,survivor count,"dose: 20.0 mg/kg/injection, schedule: Q04DX002 (ip), vehicle: clinical formulation",4 of 6
same,T/C,"dose: 20.0 mg/kg/injection, schedule: Q04DX002 (ip), vehicle: other, evaluated on day 30","90, 91 [5 of 6 alive], 95 [5 of 6 alive], 142, 175, 191 [4 of 6 alive], 200, 203 [5 of 6 alive], 205, 205 [5 of 6 alive], 211, 220, 229, 232 (2×), 234, 240 (2×), 245 [4 of 6 alive], 245 [5 of 6 alive], 248, 257, 259, 265 % of control"
same,T/C,"dose: 20.0 mg/kg/injection, schedule: Q04DX002 (ip), vehicle: other, evaluated on day 35",149 and 218 % of control
same,T/C,"dose: 20.0 mg/kg/injection, schedule: Q04DX002 (ip), vehicle: other, evaluated on day 45","186 [7 of 8 alive], 200 [7 of 8 alive], 220 % of control"
same,T/C,"dose: 20.0 mg/kg/injection, schedule: Q04DX002 (ip), vehicle: other, evaluated on day 50",238 % of control
same,survivor count,"dose: 20.0 mg/kg/injection, schedule: Q04DX002 (ip), vehicle: other","5 of 10, 5 of 8, 4 of 6, 4 of 5, 5 of 5"
same,T/C,"dose: 20.0 mg/kg/injection, schedule: Q04DX002 (ip), vehicle: saline with Tween-80","175, 190, 202, 203, 220 % of control"
same,survivor count,"dose: 20.0 mg/kg/injection, schedule: Q04DX003 (ip), vehicle: clinical formulation",3 of 8
same,T/C,"dose: 20.0 mg/kg/injection, schedule: Q04DX003 (ip), vehicle: other, evaluated on day 5",258 % of control [6 of 7 alive]
same,T/C,"dose: 20.0 mg/kg/injection, schedule: Q04DX003 (ip), vehicle: other, evaluated on day 30",208 % of control
same,T/C,"dose: 20.0 mg/kg/injection, schedule: Q04DX003 (ip), vehicle: other, evaluated on day 40",301 % of control
same,T/C,"dose: 20.0 mg/kg/injection, schedule: Q04DX003 (ip), vehicle: other, evaluated on day 45","102, 112, 195, 201 [7 of 8 alive], 206, 241, 243, 271 % of control"
same,T/C,"dose: 20.0 mg/kg/injection, schedule: Q04DX003 (ip), vehicle: other, evaluated on day 60",268 % of control
same,survivor count,"dose: 20.0 mg/kg/injection, schedule: Q04DX003 (ip), vehicle: other","5 of 8, 6 of 8, 6 of 6"
same,T/C,"dose: 20.0 mg/kg/injection, schedule: Q04DX003 (ip), vehicle: saline with Tween-80, evaluated on day 7",172 % of control
same,T/C,"dose: 20.0 mg/kg/injection, schedule: Q04DX003 (ip), vehicle: saline with Tween-80, evaluated on day 44",207 % of control
same,T/C,"dose: 20.0 mg/kg/injection, schedule: Q04DX003 (ip), vehicle: saline with Tween-80, evaluated on day 45","152, 160, 166, 191, 198, 203 % of control (2×)"
same,T/C,"dose: 20.0 mg/kg/injection, schedule: Q04DX003 (ip), vehicle: saline with Tween-80, evaluated on day 47","168, 182, 204, 218 % of control"
same,T/C,"dose: 20.0 mg/kg/injection, schedule: Q04DX003 (ip), vehicle: saline with Tween-80, evaluated on day 48",155 % of control
same,T/C,"dose: 20.0 mg/kg/injection, schedule: Q04DX003 (ip), vehicle: saline with Tween-80, evaluated on day 60","164, 202, 221 % of control"
same,survivor count,"dose: 20.0 mg/kg/injection, schedule: Q04DX003 (ip), vehicle: saline",8 of 8
same,survivor count,"dose: 20.0 mg/kg/injection, schedule: Q04DX003 (ip), vehicle: water","5 of 8, 6 of 8, 7 of 8"
same,T/C,"dose: 22.0 mg/kg/injection, schedule: Q04DX003 (oral), vehicle: other",126 % of control
same,survivor count,"dose: 24.0 mg/kg/injection, schedule: Q04DX003 (ip), vehicle: clinical formulation",3 of 8
same,survivor count,"dose: 25.0 mg/kg/injection, schedule: Q01DX001 (ip), vehicle: Klucel (hydroxypropylcellulose) (HPC)",3 of 6
same,T/C,"dose: 25.0 mg/kg/injection, schedule: Q04DX002 (oral), vehicle: other",132 % of control
same,T/C,"dose: 30.0 mg/kg/injection, schedule: Q04DX003 (ip), vehicle: saline with Tween-80, evaluated on day 44",259 % of control
same,T/C,"dose: 30.0 mg/kg/injection, schedule: Q04DX003 (ip), vehicle: saline with Tween-80, evaluated on day 45","149, 203, 216 % of control"
same,T/C,"dose: 30.0 mg/kg/injection, schedule: Q04DX003 (ip), vehicle: saline with Tween-80, evaluated on day 47","196, 213, 238, 240 % of control"
same,T/C,"dose: 30.0 mg/kg/injection, schedule: Q04DX003 (ip), vehicle: saline with Tween-80, evaluated on day 48",155 % of control
same,T/C,"dose: 33.0 mg/kg/injection, schedule: Q04DX003 (oral), vehicle: other",126 % of control [4 of 5 alive]
same,T/C,"dose: 37.5 mg/kg/injection, schedule: Q04DX002 (oral), vehicle: dextrose",127 and 139 % of control
same,T/C,"dose: 40.0 mg/kg/injection, schedule: Q01DX001 (ip), vehicle: saline with Tween-80",141 % of control
same,survivor count,"dose: 40.0 mg/kg/injection, schedule: Q04DX002 (ip), vehicle: clinical formulation",0 of 6
same,survivor count,"dose: 40.0 mg/kg/injection, schedule: Q04DX002 (ip), vehicle: other","0 of 6, 1 of 6 (2×), 1 of 5, 2 of 6, 2 of 5, 3 of 6, 3 of 5, 4 of 5, 5 of 6 (2×), 6 of 6"
same,T/C,"dose: 40.0 mg/kg/injection, schedule: Q04DX002 (ip), vehicle: saline with Tween-80","194, 201, 209, 238, 245 % of control"
same,survivor count,"dose: 40.0 mg/kg/injection, schedule: Q04DX003 (ip), vehicle: other",3 of 6
same,survivor count,"dose: 50.0 mg/kg/injection, schedule: Q01DX001 (ip), vehicle: Klucel (hydroxypropylcellulose) (HPC)",4 of 6
same,survivor count,"dose: 100.0 mg/kg/injection, schedule: Q01DX001 (ip), vehicle: Klucel (hydroxypropylcellulose) (HPC)",1 of 6
same,survivor count,"dose: 100.0 mg/kg/injection, schedule: Q04DX002 (oral), vehicle: other",4 of 6 and 5 of 6
same,survivor count,"dose: 150.0 mg/kg/injection, schedule: Q04DX002 (oral), vehicle: dextrose",3 of 6 and 5 of 6
same,survivor count,"dose: 200.0 mg/kg/injection, schedule: Q04DX002 (oral), vehicle: other",5 of 6 and 6 of 6
same,survivor count,"dose: 300.0 mg/kg/injection, schedule: Q04DX002 (oral), vehicle: dextrose",0 of 6
